# These are yes or no findings as the source states them, for the method shown. Binding seen in cells or lysates may run through a third protein. These calls come from enrichment with a bait or labelling near it, and not all partners need be listed.
# Protein sequences, listed by entry. Tags and fused reporters are not part of them. Lines headed by an entry give the natural chain unless they say otherwise; changes in a name come on top.
# UniProt P20340: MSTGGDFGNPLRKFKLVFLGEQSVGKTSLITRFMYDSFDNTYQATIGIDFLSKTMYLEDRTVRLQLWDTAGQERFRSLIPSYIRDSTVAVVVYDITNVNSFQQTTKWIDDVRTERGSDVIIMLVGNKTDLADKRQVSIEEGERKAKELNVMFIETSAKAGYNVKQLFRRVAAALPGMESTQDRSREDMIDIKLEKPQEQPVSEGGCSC
# UniProt Q9QZB7: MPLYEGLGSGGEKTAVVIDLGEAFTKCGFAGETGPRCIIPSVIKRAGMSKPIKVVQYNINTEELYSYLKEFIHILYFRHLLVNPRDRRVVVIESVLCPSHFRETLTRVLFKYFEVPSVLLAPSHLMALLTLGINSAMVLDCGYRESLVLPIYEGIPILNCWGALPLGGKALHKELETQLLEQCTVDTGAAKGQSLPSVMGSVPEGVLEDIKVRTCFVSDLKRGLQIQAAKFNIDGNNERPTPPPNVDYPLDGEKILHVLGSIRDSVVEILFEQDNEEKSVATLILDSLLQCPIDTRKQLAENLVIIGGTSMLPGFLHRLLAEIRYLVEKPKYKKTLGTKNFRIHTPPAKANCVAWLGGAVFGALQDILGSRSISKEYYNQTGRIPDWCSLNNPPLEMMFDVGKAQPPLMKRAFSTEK
# UniProt Q8C9S4: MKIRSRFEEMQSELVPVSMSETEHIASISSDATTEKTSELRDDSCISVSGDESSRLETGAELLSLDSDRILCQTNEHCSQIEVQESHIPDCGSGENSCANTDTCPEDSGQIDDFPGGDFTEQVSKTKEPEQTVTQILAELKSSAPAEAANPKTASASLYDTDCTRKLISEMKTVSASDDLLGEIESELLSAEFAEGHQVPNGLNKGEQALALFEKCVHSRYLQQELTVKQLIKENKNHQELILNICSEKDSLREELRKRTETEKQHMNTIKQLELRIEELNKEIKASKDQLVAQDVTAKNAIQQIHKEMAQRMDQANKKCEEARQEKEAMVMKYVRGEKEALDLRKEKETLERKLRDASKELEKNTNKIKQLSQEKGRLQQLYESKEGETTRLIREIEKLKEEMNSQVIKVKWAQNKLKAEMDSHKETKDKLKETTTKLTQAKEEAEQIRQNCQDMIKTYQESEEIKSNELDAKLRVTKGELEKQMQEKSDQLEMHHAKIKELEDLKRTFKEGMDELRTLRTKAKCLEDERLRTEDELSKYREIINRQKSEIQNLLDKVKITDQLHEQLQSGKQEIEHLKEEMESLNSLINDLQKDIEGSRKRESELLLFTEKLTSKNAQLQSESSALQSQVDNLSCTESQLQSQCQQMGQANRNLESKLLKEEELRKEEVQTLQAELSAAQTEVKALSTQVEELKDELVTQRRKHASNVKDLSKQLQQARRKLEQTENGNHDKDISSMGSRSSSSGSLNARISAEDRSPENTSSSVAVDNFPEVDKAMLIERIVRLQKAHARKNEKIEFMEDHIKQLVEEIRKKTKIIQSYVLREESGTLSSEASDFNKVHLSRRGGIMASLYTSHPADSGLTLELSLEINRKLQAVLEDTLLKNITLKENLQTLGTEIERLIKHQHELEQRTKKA
# UniProt O08788: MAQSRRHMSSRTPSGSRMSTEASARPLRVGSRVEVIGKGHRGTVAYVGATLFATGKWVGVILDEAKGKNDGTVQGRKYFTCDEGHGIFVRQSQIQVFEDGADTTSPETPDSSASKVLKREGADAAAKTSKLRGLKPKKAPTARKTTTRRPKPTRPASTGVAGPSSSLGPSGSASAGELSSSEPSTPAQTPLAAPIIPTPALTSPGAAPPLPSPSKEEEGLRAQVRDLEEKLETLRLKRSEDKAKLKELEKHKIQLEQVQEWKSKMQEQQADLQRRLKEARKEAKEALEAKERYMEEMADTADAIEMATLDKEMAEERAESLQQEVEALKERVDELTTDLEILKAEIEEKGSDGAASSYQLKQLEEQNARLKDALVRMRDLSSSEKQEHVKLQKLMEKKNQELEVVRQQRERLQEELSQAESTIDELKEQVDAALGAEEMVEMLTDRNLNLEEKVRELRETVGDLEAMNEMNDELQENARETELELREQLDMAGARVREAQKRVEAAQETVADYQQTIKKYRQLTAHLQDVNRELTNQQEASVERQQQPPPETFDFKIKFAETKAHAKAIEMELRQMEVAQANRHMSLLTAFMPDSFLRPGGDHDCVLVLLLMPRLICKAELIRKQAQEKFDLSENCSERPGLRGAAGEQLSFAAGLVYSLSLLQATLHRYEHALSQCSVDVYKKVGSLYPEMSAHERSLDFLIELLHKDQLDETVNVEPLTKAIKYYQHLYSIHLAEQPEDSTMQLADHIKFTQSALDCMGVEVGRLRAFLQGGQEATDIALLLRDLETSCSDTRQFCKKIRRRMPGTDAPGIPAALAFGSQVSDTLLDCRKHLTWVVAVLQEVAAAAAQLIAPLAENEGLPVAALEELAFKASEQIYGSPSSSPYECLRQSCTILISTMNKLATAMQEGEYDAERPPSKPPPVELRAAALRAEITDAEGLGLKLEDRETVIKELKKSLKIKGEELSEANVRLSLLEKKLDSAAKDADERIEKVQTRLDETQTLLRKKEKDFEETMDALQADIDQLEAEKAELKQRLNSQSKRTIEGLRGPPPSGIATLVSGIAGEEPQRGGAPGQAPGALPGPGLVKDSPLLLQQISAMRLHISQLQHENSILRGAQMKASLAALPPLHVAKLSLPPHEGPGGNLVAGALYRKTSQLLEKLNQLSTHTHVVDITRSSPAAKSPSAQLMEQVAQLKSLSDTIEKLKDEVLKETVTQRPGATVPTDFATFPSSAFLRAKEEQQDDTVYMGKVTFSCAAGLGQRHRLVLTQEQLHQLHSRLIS
# UniProt Q99KJ8: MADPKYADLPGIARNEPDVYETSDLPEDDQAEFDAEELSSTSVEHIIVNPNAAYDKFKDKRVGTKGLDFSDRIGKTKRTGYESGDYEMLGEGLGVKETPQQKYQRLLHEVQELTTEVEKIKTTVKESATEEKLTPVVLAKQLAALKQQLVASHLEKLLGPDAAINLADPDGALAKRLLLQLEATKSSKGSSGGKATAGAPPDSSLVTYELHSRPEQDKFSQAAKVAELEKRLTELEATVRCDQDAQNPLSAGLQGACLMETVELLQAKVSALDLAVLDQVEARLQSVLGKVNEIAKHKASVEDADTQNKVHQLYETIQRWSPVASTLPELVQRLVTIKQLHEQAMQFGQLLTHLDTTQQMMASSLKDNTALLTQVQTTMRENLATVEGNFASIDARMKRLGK
# UniProt Q9Z0Y1: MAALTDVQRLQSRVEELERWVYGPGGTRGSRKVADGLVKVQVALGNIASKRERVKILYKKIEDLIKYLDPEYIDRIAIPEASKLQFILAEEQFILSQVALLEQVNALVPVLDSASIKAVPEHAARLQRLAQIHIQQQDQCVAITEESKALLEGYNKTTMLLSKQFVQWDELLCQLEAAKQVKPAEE
# UniProt Q8CBY8: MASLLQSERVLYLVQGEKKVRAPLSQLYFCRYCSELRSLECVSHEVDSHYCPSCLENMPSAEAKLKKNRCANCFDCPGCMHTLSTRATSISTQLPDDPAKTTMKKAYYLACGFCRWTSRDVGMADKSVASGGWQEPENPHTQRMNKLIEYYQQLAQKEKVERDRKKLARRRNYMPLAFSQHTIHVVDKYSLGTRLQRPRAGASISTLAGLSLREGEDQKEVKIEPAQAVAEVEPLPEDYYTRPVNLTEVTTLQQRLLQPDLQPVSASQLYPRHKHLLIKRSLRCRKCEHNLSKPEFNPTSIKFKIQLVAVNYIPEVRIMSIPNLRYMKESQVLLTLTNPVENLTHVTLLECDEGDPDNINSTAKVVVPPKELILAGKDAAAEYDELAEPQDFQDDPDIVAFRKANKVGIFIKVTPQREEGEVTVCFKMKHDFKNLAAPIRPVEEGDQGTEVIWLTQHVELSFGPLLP
# UniProt O88485: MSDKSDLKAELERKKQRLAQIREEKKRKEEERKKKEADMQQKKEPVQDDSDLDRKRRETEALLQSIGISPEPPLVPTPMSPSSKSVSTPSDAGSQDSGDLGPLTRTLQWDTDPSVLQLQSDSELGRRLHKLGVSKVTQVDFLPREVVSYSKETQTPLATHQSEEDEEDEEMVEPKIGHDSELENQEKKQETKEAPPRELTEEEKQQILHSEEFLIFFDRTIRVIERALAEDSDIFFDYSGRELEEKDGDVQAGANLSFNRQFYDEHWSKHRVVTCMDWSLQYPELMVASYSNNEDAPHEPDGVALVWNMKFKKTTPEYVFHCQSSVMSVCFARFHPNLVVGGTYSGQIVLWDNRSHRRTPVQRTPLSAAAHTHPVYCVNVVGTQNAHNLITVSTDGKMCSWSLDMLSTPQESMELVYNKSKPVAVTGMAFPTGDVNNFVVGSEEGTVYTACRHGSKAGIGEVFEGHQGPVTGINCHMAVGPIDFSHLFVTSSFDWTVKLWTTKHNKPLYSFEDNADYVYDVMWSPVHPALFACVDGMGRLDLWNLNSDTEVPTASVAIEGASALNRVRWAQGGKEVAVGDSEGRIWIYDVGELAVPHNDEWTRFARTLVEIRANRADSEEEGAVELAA
# Target: GST-fused GTP-bound Rab6a Q72A (UniProt P20340)
# Experiment: affinity purification with mass spectrometry; GST-fused GTP-bound Rab6a Q72A (or GDP-bound T27N) immobilised, mouse brain lysate; silver-stained SDS-PAGE, bands by mass spectrometry; Oxr1 confirmed by immunoblot with anti-Oxr1; only the target purified
row,Molecule,binding
1,Actr10 (from UniProt Q9QZB7 1-417),binds
2,CapZb (from UniProt P47757 1-277),binds
3,Ccdc186 (from UniProt Q8C9S4 1-917),binds
4,Dctn1 (from UniProt O08788 1-1281),binds
5,Dctn2 (from UniProt Q99KJ8 1-402),binds
6,Dctn3 (from UniProt Q9Z0Y1 1-186),binds
7,Dctn4 (from UniProt Q8CBY8 1-467),binds
8,Dync1i1 (from UniProt O88485 1-628),binds
9,"Oxr1 (endogenous, mouse brain) (protein, UniProt Q4KMM3 1-866) MSVSNLSWLKKKSQSVDITAPGFNPLGGAGKQAPQASKPPAPKTPIIEEEQNNSANTQKHPSRKSELKRFYTIDTGQKKTLDKKDGRRMSFQKPKGTIEYTVESRDSLNSIALKFDTTPNELVQLNKLFSRAVVTGQVLYVPDPEYVSSVESSPSLSPVSPLSPTSSEAEFDKTTTPDVAHPKEAPPASTVSGIRPARVVSSTSEEEEAFTEKFLKINCKYITIGKGTVSGVLLVTPNNIMFDPHKTDPLVQENGCEEYGIMCPMEEVMSAAMYKEILDSKIKESLPIELDQLSGRGSCHSKKATGVSAEDADPRARDQGNDSASTAPRSTEESLSEDAFTESELSPIREELLSSEPRQEKSSDASSESVQTVSQMEVQSLTATSEAANVPDRTSSNPGALSHETGLSGLETATKGGDKATESLQEVSGPKEQSTEVKGQDNQDSSHQESSLQQEAGEDSVSSGETVELKEKPAVLKDQQGQELKRDSETEVEELRKLWKTHSMQQAKQQRDTIQQVSQRESKHSSAAADAHGEGSSLLKEKRRHRLHKFLCLRVGKPMRKTFVSQASATMQQYAQRDKKHEYWFAVPQERTDHLYAFFIQWSPEIYAEDSGEYTREPGFIVVKKMDESEANEAPAGEAAAREWEVVSVAEYHRRIDALNTEELRTLCRRLQITTREDINSKQVAPAKADLEPESFRPNLSDPSELLLPDQIEKLTKHLPPRTIGYPWTLVYGTGKHGTSLKTLYRTMTGLDTPVLMVIKDSDGQVFGALASEPFKVSDGFYGTGETFVFTFCPEFEVFKWTGDNMFFIKGDMDSLAFGGGGGEFALWLDGDLYHGRSHSCKTFGNHTLSKKEDFFIQDIEIWAFE",binds
10,"Elks1 (protein, UniProt Q99MI1 1-1120) MYGSARSVGKVEPSSQSPGRSPRLPRSPRLGHRRTNSTGGSSGNSVGGGSGKTLSMENIQSLNAAYATSGPMYLSDHENVGAETPKSTMTLGRSGGRLPYGVRMTAMGSSPNIASSGVASDTIAFGEHHLPPVSMASTVPHSLRQARDNTIMDLQTQLKEVLRENDLLRKDVEVKESKLSSSMNSIKTFWSPELKKERALRKDEASKITIWKEQYRVVQEENQHMQMTIQALQDELRIQRDLNQLFQQDSSSRTGEPCVAELTEENFQRLHAEHERQAKELFLLRKTLEEMELRIETQKQTLNARDESIKKLLEMLQSKGLSAKATEEDHERTRRLAEAEMHVHHLESLLEQKEKENNMLREEMHRRFENAPDSAKTKALQTVIEMKDSKISSMERGLRDLEEEIQMLKSNGALSSEEREEEMKQMEVYRSHSKFMKNKVEQLKEELSSKDAQGEELKKRAAGLQSEIGQVKQELSRKDTELLALQTKLETLTNQFSDSKQHIEVLKESLTAKEQRAAILQTEVDALRLRLEEKETMLNKKTKQIQDMAEEKGTQAGEIHDLKDMLDVKERKVNVLQKKIENLQEQLRDKEKQMSSLKERVKSLQADTTNTDTALTTLEEALADKERTIERLKEQRDRDEREKQEEIDTYKKDLKDLREKVSLLQGDLSEKEASLLDIKEHASSLASSGLKKDSRLKTLEIALEQKKEECLKMESQLKKAHEATLEARASPEMSDRIQQLEREISRYKDESSKAQTEVDRLLEILKEVENEKNDKDKKIAELESLTSRQVKDQNKKVANLKHKEQVEKKKSAQMLEEARRREDSLSDSSQQLQDSLRKKDDRIEELEEALRESVQITAEREMVLAQEESARTNAEKQVEELLMAMEKVKQELESMKAKLSSTQQSLAEKETHLTNLRAERRKHLEEVLEMKQEALLAAISEKDANIALLELSSSKKKTQEEVAALKREKDRLVQQLKQQTQNRMKLMADNYEDDHFRSSRSNQTNHKPSPDQIIQPLLELDQNRSKLKLYIGHLTALCHDRDPLILRGLTPPASYNADGEQAAWENELQQMTQEQLQNELEKVEGDNAELQEFANTILQQIADHCPDILEQVVNALEESS",binds
11,"Elks2 (protein, UniProt Q6PH08 1-957) MYGSARTISNLEGSPSRSPRLPRSPRLGHRRTSSGGGGGTGKTLSMENIQSLNAAYATSGPMYLSDHEGVASTTYPKGTMTLGRATNRAVYGGRVTAMGSSPNIASAGLSHTDVLSYTDQHGGLSGSSHHHHHQVPSMLRQVRDSTMLDLQAQLKELQRENDLLRKELDIKDSKLGSSMNSIKTFWSPELKKERVLRKEEAARMSVLKEQMRVSHEENQHLQLTIQALQDELRTQRDLNHLLQQESGNRGAEHFTIELTEENFRRLQAEHDRQAKELFLLRKTLEEMELRIETQKQTLNARDESIKKLLEMLQSKGLPSKSLEDDNERTRRMAEAESQVSHLEVILDQKEKENIHLREELHRRSQLQPEPAKTKALQTVIEMKDTKIASLERNIRDLEDEVQMLKANGVLNTEDREEEIKQIEVYKSHSKFMKTKIDQLKQELSKKESELLALQTKLETLSNQNSDCKQHIEVLKESLTAKEQRAAILQTEVDALRLRLEEKESFLNKKTKQLQDLTEEKGTLAGEIRDMKDMLEVKERKINVLQKKIENLQEQLRDKDKQLTNLKDRVKSLQTDSSNTDTALATLEEALSEKERIIERLKEQRERDDRERLEEIESFRKENKDLKEKVNALQAELTEKESSLIDLKEHASSLASAGLKRDSKLKSLEIAIEQKKEECNKLEAQLKKAHNIEDDSRMNPEFADRLKQLDKEASYYRDECGKAQAEVDRLLEILKEVENEKNDKDKKIAELESLTLRHMKDQNKKVANLKYNQQLEKKKNAQLLEEVRRREDSMVDNSQHLQIEELMNALEKTRQELDATKARLASTQQSLAEKEAHLANLRIERRKQLEEILEMKQEALLAAISEKDANIALLELSASKKKKTQEEVMALKREKDRLVHQLKQQTQNRMKLMADNYDEDHHHYHHHHHHHHHRSPGRSQHSNHRPSPDQDDEEGIWA",binds

# — article PMC12146697
